Source: the supplement of paper PMC10849652
This is one part of the list.

The chains behind the UniProt entries cited, without tags or fusion partners. Where a name states a change or a piece, a line headed by the entry shows the natural chain unless it says otherwise.
UniProt Q02078: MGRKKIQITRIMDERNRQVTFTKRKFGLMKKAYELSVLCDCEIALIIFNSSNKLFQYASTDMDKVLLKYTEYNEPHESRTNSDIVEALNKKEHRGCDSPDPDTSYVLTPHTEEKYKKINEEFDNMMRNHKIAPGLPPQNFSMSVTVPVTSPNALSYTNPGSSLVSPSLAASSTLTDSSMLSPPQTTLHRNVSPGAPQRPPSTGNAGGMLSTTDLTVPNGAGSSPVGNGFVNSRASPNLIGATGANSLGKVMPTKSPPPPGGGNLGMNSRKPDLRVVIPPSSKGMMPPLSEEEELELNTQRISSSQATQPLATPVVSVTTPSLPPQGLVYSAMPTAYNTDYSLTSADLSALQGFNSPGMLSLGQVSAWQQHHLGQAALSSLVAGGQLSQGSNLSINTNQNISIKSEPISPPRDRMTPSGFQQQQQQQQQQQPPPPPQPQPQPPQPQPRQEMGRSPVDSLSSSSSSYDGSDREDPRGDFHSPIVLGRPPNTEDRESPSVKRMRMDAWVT
UniProt Q9H3U5: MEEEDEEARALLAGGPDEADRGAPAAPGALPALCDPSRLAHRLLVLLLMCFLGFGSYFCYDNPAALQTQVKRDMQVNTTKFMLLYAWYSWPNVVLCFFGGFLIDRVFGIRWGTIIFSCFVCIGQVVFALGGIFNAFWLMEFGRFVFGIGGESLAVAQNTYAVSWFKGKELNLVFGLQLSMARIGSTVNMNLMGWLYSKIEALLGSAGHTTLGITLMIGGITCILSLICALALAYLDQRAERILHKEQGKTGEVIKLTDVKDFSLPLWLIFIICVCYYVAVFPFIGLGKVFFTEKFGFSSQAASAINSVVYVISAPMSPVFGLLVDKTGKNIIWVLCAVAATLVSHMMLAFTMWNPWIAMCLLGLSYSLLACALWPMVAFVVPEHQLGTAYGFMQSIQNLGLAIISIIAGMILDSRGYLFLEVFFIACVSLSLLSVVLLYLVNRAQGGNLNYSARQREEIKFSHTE
UniProt P61244, whole entry, looked up: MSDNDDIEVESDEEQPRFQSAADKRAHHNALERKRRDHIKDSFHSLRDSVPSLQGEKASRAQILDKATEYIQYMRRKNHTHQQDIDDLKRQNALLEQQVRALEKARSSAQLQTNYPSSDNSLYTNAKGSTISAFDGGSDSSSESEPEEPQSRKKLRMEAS
UniProt Q14728: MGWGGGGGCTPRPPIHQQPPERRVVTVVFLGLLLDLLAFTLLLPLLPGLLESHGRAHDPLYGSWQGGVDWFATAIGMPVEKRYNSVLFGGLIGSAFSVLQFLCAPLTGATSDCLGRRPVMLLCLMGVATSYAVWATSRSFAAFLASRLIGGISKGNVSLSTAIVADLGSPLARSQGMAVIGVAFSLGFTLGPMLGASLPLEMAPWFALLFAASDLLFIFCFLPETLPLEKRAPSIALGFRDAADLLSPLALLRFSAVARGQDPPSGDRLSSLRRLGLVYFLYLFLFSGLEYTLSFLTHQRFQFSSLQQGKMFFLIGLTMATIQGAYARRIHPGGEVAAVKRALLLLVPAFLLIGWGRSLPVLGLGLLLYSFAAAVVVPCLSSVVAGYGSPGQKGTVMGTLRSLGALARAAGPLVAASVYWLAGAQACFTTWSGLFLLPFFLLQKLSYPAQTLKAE
UniProt O95402: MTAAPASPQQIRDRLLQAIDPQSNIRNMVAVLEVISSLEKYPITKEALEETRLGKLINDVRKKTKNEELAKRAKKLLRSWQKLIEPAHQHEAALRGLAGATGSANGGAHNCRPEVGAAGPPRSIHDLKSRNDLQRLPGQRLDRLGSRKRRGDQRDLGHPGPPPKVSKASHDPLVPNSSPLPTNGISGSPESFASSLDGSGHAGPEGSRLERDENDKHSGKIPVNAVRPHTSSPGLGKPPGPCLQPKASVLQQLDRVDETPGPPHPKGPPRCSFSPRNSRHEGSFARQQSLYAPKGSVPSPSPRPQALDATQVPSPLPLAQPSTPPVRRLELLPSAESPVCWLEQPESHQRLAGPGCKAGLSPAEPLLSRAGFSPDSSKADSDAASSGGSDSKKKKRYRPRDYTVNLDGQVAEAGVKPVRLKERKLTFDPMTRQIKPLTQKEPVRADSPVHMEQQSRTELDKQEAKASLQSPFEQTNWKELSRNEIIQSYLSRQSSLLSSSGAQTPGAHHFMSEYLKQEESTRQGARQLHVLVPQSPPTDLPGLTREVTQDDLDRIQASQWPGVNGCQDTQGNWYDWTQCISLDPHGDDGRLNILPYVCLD
UniProt Q71F56: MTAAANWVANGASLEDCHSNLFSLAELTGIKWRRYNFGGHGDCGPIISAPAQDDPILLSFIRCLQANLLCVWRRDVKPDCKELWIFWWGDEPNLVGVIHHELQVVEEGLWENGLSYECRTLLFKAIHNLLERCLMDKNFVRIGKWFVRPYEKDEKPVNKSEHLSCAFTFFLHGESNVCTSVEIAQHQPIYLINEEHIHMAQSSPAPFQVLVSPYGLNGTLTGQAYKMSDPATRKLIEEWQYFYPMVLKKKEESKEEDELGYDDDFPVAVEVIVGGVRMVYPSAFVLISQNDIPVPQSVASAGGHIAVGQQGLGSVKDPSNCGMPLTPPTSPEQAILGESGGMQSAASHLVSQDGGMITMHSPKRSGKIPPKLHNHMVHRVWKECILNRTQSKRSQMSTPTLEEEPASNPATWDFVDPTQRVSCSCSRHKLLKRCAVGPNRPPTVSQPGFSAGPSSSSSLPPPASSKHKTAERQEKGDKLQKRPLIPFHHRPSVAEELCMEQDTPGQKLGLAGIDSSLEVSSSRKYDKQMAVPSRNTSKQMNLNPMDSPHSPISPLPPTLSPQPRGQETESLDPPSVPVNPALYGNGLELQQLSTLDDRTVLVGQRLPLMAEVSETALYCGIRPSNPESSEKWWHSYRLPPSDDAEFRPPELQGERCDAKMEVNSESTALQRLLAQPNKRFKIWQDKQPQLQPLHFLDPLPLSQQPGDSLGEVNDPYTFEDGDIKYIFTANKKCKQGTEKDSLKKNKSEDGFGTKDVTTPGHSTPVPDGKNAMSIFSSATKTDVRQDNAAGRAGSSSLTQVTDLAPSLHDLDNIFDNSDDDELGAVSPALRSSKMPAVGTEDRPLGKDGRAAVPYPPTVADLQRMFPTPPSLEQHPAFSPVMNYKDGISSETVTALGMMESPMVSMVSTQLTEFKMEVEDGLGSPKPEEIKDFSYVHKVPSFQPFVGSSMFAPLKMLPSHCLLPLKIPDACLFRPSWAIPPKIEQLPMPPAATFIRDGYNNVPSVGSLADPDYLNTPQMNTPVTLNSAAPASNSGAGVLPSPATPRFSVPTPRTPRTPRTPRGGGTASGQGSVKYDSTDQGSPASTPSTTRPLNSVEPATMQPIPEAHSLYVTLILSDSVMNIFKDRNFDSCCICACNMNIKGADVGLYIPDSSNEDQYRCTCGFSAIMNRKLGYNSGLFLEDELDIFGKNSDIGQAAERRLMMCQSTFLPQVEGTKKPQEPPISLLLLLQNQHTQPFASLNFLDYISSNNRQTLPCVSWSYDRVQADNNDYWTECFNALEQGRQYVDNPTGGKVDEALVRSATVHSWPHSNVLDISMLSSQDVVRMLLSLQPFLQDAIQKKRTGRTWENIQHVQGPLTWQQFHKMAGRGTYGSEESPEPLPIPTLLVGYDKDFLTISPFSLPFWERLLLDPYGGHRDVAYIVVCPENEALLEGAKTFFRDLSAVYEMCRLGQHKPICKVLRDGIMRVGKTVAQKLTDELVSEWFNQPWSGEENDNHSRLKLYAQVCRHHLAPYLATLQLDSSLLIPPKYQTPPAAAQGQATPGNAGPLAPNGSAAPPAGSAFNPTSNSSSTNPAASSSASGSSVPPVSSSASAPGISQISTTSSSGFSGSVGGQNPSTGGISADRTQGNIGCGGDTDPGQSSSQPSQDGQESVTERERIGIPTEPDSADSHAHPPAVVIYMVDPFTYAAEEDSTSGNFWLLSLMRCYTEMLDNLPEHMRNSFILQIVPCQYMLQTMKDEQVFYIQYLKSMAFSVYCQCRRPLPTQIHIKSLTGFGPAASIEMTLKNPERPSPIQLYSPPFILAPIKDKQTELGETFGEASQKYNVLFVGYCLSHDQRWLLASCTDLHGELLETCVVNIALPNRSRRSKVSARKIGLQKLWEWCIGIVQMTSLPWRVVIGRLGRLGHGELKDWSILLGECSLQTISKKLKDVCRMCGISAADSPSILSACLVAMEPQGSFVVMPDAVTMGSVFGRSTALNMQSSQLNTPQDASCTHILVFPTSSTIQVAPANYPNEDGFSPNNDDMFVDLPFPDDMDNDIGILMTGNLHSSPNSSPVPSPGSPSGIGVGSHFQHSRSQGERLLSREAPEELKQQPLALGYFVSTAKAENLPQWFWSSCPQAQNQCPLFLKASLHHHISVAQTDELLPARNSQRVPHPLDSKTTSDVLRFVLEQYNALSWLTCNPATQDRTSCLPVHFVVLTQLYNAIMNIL
UniProt P56270: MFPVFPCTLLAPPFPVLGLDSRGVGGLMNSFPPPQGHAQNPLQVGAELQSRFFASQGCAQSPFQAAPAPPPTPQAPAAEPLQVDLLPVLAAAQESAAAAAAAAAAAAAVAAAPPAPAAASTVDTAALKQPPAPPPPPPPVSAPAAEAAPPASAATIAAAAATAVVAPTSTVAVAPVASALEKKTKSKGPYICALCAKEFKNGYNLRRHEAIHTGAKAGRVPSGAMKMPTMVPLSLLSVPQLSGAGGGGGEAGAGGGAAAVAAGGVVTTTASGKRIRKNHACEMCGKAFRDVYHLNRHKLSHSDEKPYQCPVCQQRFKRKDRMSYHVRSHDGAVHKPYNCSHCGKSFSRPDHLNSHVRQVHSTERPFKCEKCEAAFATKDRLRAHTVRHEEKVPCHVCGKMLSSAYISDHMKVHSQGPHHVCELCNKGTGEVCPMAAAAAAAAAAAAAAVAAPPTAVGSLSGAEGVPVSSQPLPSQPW
UniProt O43513: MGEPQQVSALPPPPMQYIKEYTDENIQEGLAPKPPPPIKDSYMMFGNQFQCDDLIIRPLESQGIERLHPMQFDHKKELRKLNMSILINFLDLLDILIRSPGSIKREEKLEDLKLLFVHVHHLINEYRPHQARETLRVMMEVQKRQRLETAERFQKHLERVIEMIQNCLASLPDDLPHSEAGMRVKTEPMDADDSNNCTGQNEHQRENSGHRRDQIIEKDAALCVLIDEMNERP
UniProt Q86W50: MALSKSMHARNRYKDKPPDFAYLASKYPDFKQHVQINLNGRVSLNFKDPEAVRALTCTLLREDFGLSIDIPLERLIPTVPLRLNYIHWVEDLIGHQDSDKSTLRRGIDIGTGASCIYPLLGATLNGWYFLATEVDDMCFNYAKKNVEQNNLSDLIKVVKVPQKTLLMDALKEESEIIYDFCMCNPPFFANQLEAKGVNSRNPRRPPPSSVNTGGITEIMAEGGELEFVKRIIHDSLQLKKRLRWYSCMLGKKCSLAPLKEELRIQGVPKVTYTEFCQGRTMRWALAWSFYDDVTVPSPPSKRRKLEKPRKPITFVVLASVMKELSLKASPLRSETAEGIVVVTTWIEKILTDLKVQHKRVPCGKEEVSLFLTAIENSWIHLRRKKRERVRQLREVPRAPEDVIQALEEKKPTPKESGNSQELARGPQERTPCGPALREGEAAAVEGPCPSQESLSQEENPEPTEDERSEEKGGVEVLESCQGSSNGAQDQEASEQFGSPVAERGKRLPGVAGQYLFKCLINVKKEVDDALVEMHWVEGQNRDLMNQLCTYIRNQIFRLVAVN
UniProt Q07820, whole entry, looked up: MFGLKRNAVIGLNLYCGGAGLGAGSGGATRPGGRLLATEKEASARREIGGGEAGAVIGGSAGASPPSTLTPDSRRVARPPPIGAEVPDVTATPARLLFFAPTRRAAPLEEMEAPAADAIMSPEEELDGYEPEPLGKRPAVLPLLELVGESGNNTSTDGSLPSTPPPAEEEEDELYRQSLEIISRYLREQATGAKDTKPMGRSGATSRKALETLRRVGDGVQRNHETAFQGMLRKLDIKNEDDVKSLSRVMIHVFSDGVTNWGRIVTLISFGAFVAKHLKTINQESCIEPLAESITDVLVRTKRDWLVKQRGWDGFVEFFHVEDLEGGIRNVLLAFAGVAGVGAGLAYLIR
UniProt P40926: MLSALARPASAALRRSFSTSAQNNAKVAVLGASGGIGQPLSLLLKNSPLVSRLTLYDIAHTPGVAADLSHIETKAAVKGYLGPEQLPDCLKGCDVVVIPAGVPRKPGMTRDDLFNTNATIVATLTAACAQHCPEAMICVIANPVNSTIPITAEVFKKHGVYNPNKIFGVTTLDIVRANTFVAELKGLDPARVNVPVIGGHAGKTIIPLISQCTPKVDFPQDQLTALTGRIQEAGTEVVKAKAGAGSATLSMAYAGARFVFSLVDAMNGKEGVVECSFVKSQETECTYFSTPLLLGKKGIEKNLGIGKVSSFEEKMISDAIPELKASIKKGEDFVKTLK

Legend:
Experiment in all cases: log2 fold change, soluble protein after heating vs DMSO (PISA); higher = thermal stabilisation; K562 lysate, 10 uM; active = over 0.2 and 3.5 SD of the protein, either way, in both replicates (recomputed)
erlotinib = compound: C#Cc1cccc(Nc2ncnc3cc(OCCOC)c(OCCOC)cc23)c1 [erlotinib]
How it was run: (§1)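 Quantification was by TMTpro 16plex LC-MS/MS with equalised channel sums, applied to the supernatant after 21,000xg for 90 min. Samples were crude K562 extract at 1 mg/mL protein in PBS pH 7.4 with 1 mM MgCl2, treated with 10 μM compound for 30 min, heated for 3 min across 48°C-58°C, pooled and brought to 0.5% NP-40 at 4°C. Values are log-two fold changes in thermal stability relative to solvent controls, from duplicates.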

[1] = compound: C/C(=N\NC(=O)C1=CC(=CC=C1)S(=O)(=O)N2CCOCC2)/C3=C(C=CC(=C3)Cl)O
How it was run: as §1

[2] = compound: C1=CC(=CC=C1C2=NC3=C(N2)C=C(C=C3)C(=O)N)OC4=CC=C(C=C4)Cl
How it was run: as §1

[3] = compound: C1=CC2=C(C=CC(=C2)/C=C\3/C(=O)NC(=NCC4=CC=CS4)S3)N=C1
How it was run: as §1

[4] = compound: C1=CC2=NC=CN=C2C=C1/C=C/3\C(=O)NC(=O)S3
How it was run: as §1

[5] = compound: C1=CC=C(C=C1)C2=NC(=C(N2)C3=CC=NC=C3)C4=CC(=C(C=C4)Cl)O
How it was run: as §1

[6] = compound: C1=CC=C2C(=C1)C3=NNC4=CC=CC(=C43)C2=O
How it was run: as §1

[7] = compound: C1CCN(C1)C(=O)NC2=CC=CC(=C2)NC3=NC=C(C(=N3)NCCC4=CN=CN4)Br
How it was run: as §1

[8] = compound: C1CN(CCC1(CC2=CC=C(C=C2)Cl)N)C3=NC=NC4=C3C=CN4
How it was run: as §1

IRAK-1-4 Inhibitor I = compound: C1COCCN1CCN2C3=CC=CC=C3N=C2NC(=O)C4=CC(=CC=C4)[N+](=O)[O-] [IRAK-1-4 Inhibitor I]
How it was run: as §1

Measured: log2 fold change

MEF2A (UniProt Q02078)
inactive: erlotinib 0.002 | [1] 0.001 | [2] 0.025 | [3] 0 | [4] -0.096 | [5] -0.059 | [6] -0.063 | [7] 0.171 | [8] 0.216 | IRAK-1-4 Inhibitor I 0.09

MEF2C isoform 5 (UniProt Q06413)
inactive: erlotinib -0.174 | [1] -0.019 | [2] 0.046 | [3] -0.044 | [4] -0.088 | [5] 0.076 | [6] 0.015 | [7] 0.126 | [8] -0.085 | IRAK-1-4 Inhibitor I -0.079

MEAK7 (UniProt Q6P9B6)
inactive: erlotinib 0.013 | [1] 0.051 | [2] 0.017 | [3] -0.03 | [4] -0.004 | [5] -0.023 | [6] -0.018 | [7] 0 | [8] 0.001 | IRAK-1-4 Inhibitor I 0.051

Pulled one by one from above (two):
MEF2A (UniProt Q02078)
inactive: erlotinib 0.002 | [1] 0.001 | [2] 0.025 | [3] 0 | [4] -0.096 | [5] -0.059 | [6] -0.063 | [7] 0.171 | [8] 0.216 | IRAK-1-4 Inhibitor I 0.09

MEF2C isoform 5 (UniProt Q06413)
inactive: erlotinib -0.174 | [1] -0.019 | [2] 0.046 | [3] -0.044 | [4] -0.088 | [5] 0.076 | [6] 0.015 | [7] 0.126 | [8] -0.085 | IRAK-1-4 Inhibitor I -0.079

Going on with the list:

MCRIP1 (UniProt I3L4Q0)
inactive: erlotinib -0.02 | [1] -0.044 | [2] 0.022 | [3] 0.019 | [4] 0.035 | [5] -0.027 | [6] 0.022 | [7] 0.058 | [8] 0.076 | IRAK-1-4 Inhibitor I 0.037

MBLAC2 (UniProt Q68D91)
inactive: erlotinib -0.052 | [1] -0.042 | [2] 0.01 | [3] -0.055 | [4] 0.012 | [5] 0.018 | [6] 0.065 | [7] 0.026 | [8] -0.007 | IRAK-1-4 Inhibitor I -0.027

MEAF6 isoform 3 (UniProt Q9HAF1)
inactive: erlotinib -0.031 | [1] 0.021 | [2] -0.008 | [3] -0.034 | [4] -0.021 | [5] -0.039 | [6] 0.039 | [7] -0.026 | [8] 0.028 | IRAK-1-4 Inhibitor I 0.02

MCAM (UniProt P43121)
inactive: erlotinib -0.025 | [1] 0.012 | [2] 0.039 | [3] -0.024 | [4] 0.016 | [5] 0.018 | [6] -0.069 | [7] 0.008 | [8] 0.076 | IRAK-1-4 Inhibitor I 0.032

MCCC2 (UniProt Q9HCC0)
inactive: erlotinib -0.003 | [1] -0.065 | [2] 0.018 | [3] 0.02 | [4] -0.027 | [5] 0.002 | [6] -0.025 | [7] -0.002 | [8] -0.019 | IRAK-1-4 Inhibitor I 0.005

MFSD1 isoform 6 (UniProt Q9H3U5)
inactive: erlotinib -0.094 | [1] 0.048 | [2] 0.022 | [3] -0.071 | [4] 0.031 | [5] 0.008 | [6] 0.03 | [7] 0.029 | [8] -0.066 | IRAK-1-4 Inhibitor I -0.072

MAX (UniProt P61244)
inactive: erlotinib -0.013 | [1] -0.019 | [2] -0.01 | [3] -0.043 | [4] -0.029 | [5] -0.095 | [6] -0.019 | [7] 0.044 | [8] -0.031 | IRAK-1-4 Inhibitor I 0.059

MFSD10 (UniProt Q14728)
inactive: erlotinib -0.06 | [1] 0.049 | [2] -0.145 | [3] -0.01 | [4] 0.019 | [5] -0.008 | [6] 0.071 | [7] -0.138 | [8] 0.017 | IRAK-1-4 Inhibitor I 0.13

MCMBP (UniProt Q9BTE3)
inactive: erlotinib 0.038 | [1] 0.069 | [2] 0.024 | [3] 0.063 | [4] 0.01 | [5] -0.017 | [6] 0.001 | [7] -0.023 | [8] 0.072 | IRAK-1-4 Inhibitor I 0

METTL26 (UniProt Q96S19)
inactive: erlotinib -0.07 | [1] 0.08 | [2] -0.115 | [3] -0.002 | [4] -0.042 | [5] 0.074 | [6] -0.09 | [7] -0.096 | [8] 0.036 | IRAK-1-4 Inhibitor I 0.009

MAVS (UniProt Q7Z434)
inactive: erlotinib 0.024 | [1] -0.02 | [2] 0 | [3] -0.007 | [4] 0.04 | [5] -0.002 | [6] -0.04 | [7] 0 | [8] 0.021 | IRAK-1-4 Inhibitor I 0.044

MERTK (UniProt Q12866)
inactive: erlotinib 0.002 | [1] -0.004 | [2] -0.111 | [3] 0.018 | [4] -0.199 | [5] -0.012 | [6] 0 | [7] -0.047 | [8] -0.03 | IRAK-1-4 Inhibitor I 0.027

MCM7 (UniProt P33993)
inactive: erlotinib 0.007 | [1] 0.025 | [2] -0.018 | [3] -0.002 | [4] 0.013 | [5] -0.004 | [6] 0.064 | [7] -0.004 | [8] -0.007 | IRAK-1-4 Inhibitor I -0.016

MCM5 (UniProt P33992)
inactive: erlotinib -0.016 | [1] -0.011 | [2] -0.008 | [3] 0.001 | [4] -0.012 | [5] -0.001 | [6] 0.047 | [7] -0.015 | [8] -0.002 | IRAK-1-4 Inhibitor I -0.013

MED26 (UniProt O95402)
inactive: erlotinib -0.041 | [1] -0.002 | [2] 0.239 | [3] 0.009 | [4] 0.04 | [5] 0.009 | [6] -0.082 | [7] 0.082 | [8] -0.162 | IRAK-1-4 Inhibitor I 0.012

MED13L (UniProt Q71F56)
inactive: erlotinib 0.048 | [1] -0.049 | [2] 0.03 | [3] 0.024 | [4] 0.034 | [5] -0.014 | [6] -0.035 | [7] 0.024 | [8] 0.013 | IRAK-1-4 Inhibitor I 0.061

MAZ isoform 2 (UniProt P56270)
inactive: erlotinib -0.017 | [1] 0.099 | [2] -0.072 | [3] 0 | [4] -0.055 | [5] 0.038 | [6] 0.209 | [7] 0.003 | [8] -0.052 | IRAK-1-4 Inhibitor I 0.003

MFN1 (UniProt Q8IWA4)
inactive: erlotinib 0.016 | [1] 0.124 | [2] -0.025 | [3] -0.05 | [4] 0.001 | [5] -0.022 | [6] -0.011 | [7] 0.024 | [8] 0.017 | IRAK-1-4 Inhibitor I 0.004

ME1 (UniProt P48163)
inactive: erlotinib 0 | [1] 0.006 | [2] 0.016 | [3] 0.036 | [4] 0.005 | [5] -0.028 | [6] 0.002 | [7] 0.078 | [8] -0.015 | IRAK-1-4 Inhibitor I -0.012

MED7 (UniProt O43513)
inactive: erlotinib 0.071 | [1] -0.122 | [2] 0.038 | [3] -0.038 | [4] 0.063 | [5] 0.08 | [6] -0.109 | [7] 0.145 | [8] 0.004 | IRAK-1-4 Inhibitor I -0.023

MED14 (UniProt O60244)
inactive: erlotinib -0.012 | [1] 0.018 | [2] 0.008 | [3] 0.027 | [4] 0.015 | [5] 0 | [6] -0.066 | [7] -0.014 | [8] -0.042 | IRAK-1-4 Inhibitor I 0.005

METTL16 (UniProt Q86W50)
inactive: erlotinib -0.023 | [1] 0.028 | [2] 0.037 | [3] 0.001 | [4] -0.034 | [5] 0.034 | [6] -0.008 | [7] 0.019 | [8] -0.019 | IRAK-1-4 Inhibitor I -0.004

MCL1 (UniProt Q07820)
inactive: erlotinib -0.099 | [1] -0.004 | [2] 0.208 | [3] -0.181 | [4] 0.036 | [5] -0.065 | [6] 0.151 | [7] -0.055 | [8] -0.043 | IRAK-1-4 Inhibitor I -0.015

METTL7A (UniProt Q9H8H3)
active: [7] 0.385
inactive: erlotinib 0.029 | [1] 0.043 | [2] 0.183 | [3] 0.008 | [4] -0.041 | [5] 0.048 | [6] -0.016 | [8] 0.06 | IRAK-1-4 Inhibitor I 0.036

MFN2 (UniProt O95140)
inactive: erlotinib 0.055 | [1] 0.023 | [2] -0.011 | [3] -0.003 | [4] 0.005 | [5] 0.008 | [6] 0.016 | [7] -0.004 | [8] 0.027 | IRAK-1-4 Inhibitor I 0.016

MDH2 (UniProt P40926)
inactive: erlotinib -0.039 | [1] 0.014 | [2] -0.002 | [3] -0.016 | [4] -0.01 | [5] -0.002 | [6] 0.003 | [7] 0.007 | [8] 0.004 | IRAK-1-4 Inhibitor I 0.008
